Patent US9913836B2, “Anticholinergic neuroprotective composition and methods” (priority 2012, dated 2018)
At least one read-out could not be matched to a standard name with certainty.

Test: Same study: peak plasma levels of rivastigmine given with placebo or active trospium
Assay type: in vivo, human
Conditions: average of 3 subjects
Experimental: In this single-blind crossover study, healthy volunteers were hospitalized at a Phase I Center (Forenap, Rouffach, France) for the once daily oral administration of ascending doses of rivastigmine hydrogen tartrate (“rivastigmine”), (3 mg to a possible maximum of 24 mg in 3 mg increments as tolerated) together with placebo trospium and then with ascending amounts of rivastigmine (3 mg to a possible maximum of 24 mg as tolerated) together with active trospium. Placebo trospium or active trospium (at a fixed dose of 40 mg per day) were given orally once daily 3 hours before rivastigmine administration. Venous blood was collected for the measurement of plasma drug levels at their nominal peaks (approximately 1 hour after rivastigmine administration). Subjects were monitored clinically for 4 hours after drug administration or until all adverse events had subsided.

CCN(C)C(=O)Oc1cccc([C@H](C)N(C)C)c1 [rivastigmine, (S)—N-Ethyl-N-methyl-3-[1-(dimethylamino)ethyl]-phenyl carbamate]
Average peak plasma concentration of rivastigmine at maximum tolerated dose in combination with 40 mg of trospium: 88 ng/mL
